Measurements taken from paper PMC4660820.
These are yes or no findings as the source states them, for the method shown. In cells and extracts the contact can be indirect.

Amino acid sequences for entries named in this document (tags omitted). Residues count along the entry.
UniProt Q9Y6B6: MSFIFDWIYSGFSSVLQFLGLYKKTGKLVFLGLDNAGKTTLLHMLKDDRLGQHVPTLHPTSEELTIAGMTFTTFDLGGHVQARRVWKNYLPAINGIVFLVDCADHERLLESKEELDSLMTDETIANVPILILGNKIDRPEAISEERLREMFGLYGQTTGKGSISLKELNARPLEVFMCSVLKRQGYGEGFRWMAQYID
UniProt P30101, residues 25-505: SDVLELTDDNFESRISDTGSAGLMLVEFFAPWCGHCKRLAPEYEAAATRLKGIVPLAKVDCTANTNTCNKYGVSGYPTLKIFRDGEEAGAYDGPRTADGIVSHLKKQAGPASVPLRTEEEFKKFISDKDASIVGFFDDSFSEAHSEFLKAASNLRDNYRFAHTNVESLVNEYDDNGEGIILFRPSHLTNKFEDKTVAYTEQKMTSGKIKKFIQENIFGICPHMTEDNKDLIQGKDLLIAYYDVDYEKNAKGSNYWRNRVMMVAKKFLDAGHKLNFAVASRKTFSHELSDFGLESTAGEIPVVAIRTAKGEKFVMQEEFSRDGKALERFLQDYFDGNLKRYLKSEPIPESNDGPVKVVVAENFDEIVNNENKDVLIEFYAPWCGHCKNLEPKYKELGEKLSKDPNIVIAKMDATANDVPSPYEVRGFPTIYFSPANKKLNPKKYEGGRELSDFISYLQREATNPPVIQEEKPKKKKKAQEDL

Target: SAR1B (human (endogenous in VA-13, HepG2-derived)) (UniProt Q9Y6B6)
Test: co-IP; Pierce Co-Immunoprecipitation Kit; lysates of VA-13 cells, control or treated with 35 mM ethanol for 72 h; lysates normalised by the target protein; non-specific mouse and rabbit IgG as controls; Western blot

With “protein disulfide isomerase A3 (human) (from UniProt P30101 25-505) (enzyme)” the binding was “no binding”.
